Measured values published in PMC11324527, “Cryo-EM architecture of a near-native stretch-sensitive membrane microdomain” (Nature, 2024).
No constants are given. Whether binding was seen depends on the method and setting. For some of these results: In cells and extracts the contact can be indirect. Some results given as binding are weak or reduced against the parent protein; the word gives no strength. Blank lines part the entries; values can stand above or below the molecule they belong to.

By UniProt entry, the sequences of proteins in these tests, tags left out.
UniProt P32600: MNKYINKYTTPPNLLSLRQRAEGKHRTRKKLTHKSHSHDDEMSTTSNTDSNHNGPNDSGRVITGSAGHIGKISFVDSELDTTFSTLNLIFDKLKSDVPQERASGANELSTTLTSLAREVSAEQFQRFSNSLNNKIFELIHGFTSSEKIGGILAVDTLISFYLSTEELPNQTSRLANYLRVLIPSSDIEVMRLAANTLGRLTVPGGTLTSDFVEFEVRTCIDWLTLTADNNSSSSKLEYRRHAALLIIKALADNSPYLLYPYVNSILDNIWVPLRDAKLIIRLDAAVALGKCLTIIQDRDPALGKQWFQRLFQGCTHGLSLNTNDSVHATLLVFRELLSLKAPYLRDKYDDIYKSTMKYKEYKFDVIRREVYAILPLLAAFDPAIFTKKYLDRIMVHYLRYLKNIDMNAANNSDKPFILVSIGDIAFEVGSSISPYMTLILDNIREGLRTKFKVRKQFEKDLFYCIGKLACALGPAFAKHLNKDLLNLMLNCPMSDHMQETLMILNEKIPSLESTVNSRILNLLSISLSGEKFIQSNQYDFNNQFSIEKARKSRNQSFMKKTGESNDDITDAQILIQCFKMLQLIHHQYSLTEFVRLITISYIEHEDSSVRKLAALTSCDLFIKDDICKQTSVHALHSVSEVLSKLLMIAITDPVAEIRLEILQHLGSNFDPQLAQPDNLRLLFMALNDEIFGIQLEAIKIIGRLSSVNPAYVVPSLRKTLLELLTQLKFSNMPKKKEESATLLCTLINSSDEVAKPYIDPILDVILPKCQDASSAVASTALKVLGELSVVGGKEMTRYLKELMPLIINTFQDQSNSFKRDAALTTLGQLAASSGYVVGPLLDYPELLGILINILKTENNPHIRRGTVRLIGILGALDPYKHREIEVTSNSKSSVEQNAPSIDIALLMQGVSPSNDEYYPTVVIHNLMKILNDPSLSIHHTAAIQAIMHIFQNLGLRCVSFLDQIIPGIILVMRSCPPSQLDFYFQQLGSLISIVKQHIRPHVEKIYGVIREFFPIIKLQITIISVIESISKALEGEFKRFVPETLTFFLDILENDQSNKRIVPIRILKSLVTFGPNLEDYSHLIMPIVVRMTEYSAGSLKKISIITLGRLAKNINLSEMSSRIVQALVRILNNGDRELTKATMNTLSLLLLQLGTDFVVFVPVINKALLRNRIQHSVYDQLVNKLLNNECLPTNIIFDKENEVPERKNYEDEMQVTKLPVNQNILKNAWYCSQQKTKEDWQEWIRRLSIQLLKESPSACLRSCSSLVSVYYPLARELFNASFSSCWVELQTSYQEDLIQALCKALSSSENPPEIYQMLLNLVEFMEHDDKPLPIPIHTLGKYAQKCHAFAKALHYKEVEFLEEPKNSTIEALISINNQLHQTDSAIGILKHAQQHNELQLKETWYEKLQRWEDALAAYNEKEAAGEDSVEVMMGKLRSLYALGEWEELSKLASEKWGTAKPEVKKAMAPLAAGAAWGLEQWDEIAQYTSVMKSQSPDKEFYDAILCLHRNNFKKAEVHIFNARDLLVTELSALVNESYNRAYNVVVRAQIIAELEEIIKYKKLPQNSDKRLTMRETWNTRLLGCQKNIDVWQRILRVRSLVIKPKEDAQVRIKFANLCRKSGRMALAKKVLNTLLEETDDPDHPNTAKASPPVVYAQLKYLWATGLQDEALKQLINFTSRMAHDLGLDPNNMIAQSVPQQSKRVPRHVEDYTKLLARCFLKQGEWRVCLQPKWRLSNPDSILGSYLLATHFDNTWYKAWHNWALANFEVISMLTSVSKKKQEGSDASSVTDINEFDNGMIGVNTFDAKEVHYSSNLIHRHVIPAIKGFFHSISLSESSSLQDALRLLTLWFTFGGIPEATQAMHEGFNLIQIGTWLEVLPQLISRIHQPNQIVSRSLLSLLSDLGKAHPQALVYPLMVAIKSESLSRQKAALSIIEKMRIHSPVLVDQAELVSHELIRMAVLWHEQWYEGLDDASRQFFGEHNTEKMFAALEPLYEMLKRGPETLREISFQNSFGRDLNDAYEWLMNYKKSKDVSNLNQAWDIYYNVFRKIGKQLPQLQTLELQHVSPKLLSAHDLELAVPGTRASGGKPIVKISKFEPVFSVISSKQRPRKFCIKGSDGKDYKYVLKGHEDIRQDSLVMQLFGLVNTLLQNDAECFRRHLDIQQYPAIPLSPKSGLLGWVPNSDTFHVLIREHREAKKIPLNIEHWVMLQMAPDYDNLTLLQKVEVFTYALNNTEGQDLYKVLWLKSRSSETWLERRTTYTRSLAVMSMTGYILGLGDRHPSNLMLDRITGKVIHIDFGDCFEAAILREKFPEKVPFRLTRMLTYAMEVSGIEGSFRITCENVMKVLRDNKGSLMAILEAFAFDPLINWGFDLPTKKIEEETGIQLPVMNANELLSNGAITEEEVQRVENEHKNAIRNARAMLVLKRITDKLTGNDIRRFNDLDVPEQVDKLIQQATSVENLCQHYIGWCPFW

What was measured:
[1] = biological target: T1, Bit61-TAP (S. cerevisiae (endogenous in yeast)) (UniProt P47041); test: pull-down; Bit61-TAP from cleared yeast lysate on IgG-coupled Dynabeads, 50 mM PIPES pH 7, 300 mM NaCl, CHAPS, 4 °C, eluted with TEV protease; Coomassie-stained gel
T1 sequence: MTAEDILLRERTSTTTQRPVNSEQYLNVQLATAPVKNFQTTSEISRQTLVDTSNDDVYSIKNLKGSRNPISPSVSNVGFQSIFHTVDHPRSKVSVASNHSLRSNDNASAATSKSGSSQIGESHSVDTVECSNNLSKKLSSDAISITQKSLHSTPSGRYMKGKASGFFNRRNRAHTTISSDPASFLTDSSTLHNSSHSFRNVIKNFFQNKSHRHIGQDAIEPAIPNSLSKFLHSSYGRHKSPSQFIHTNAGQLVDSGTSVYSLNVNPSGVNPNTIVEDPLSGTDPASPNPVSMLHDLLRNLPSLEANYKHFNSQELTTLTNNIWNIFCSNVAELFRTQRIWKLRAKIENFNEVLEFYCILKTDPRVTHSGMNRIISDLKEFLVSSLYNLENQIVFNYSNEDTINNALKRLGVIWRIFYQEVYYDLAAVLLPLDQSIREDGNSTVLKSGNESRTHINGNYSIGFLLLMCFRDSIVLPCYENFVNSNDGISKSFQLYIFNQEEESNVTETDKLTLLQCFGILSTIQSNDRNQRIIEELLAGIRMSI

[2] = biological target: Pil1 (native-source eisosome) (S. cerevisiae (endogenous in yeast)) (UniProt P53252); test: cryo-EM structure; native-source eisosome tubules isolated from S. cerevisiae with bound plasma membrane bilayer; helical reconstruction of nine tubule types, symmetry expansion and density subtraction; dimers in a helical lattice

binding [1]: binds
Molecule: Tor2 (from UniProt P32600 1-2474)

binding [1]: binds
B1: Avo1 (protein, UniProt Q08236 1-1176)
chain: MDTVTVLNELRAQFLRVCPEKDQMKRIIKPYIPVDEFNTEQCLDSSIRELYMNSDGVSLLPELESPPVSKDFMENYASLGKMRIMRENEGQKGKANQNLIGAEKTERDEEETRNLQDKSAKNTLIVEENGTLRYNPLNSSASNSLLNDDDHTSGKHHKTSSKEDSYLNSSMEMQKKSSKRSSLPFVRIFKSRRDHSNTSGNKNVMNTTNTRAKSSTLHPPGARHNKKGSKFDMNFDFDENLEEEDDDDDDDEEGDDIHSQFFQLDDDFDAKGSGASPAHKGINGMSNNKNNTYTNNRNSISILDDRESSNGNIGSASRLKSHFPTSQKGKIFLTDNKNDGQKSDSLNANKGIHGDGSSASGNGSVSRDGLTETESNNISDMESYINEKDLDDLNFDTVTSNINKTVSDLGGHESTNDGTAVMNRDSKDSRSNSNEFNAQNRDRITPGSSYGKSLLGSEYSEERYSNNDSSTMESGEMSLDSDMQTNTIPSHSIPMSMQKYGIYHGDDDSTLNNVFDKAVLTMNSSRHPKERRDTVISGKEPTSLTSSNRKFSVSSNLTSTRSPLLRGHGRTSSTASSEHMKAPKVSDSVLHRARKSTLTLKQDHSQPSVPSSVHKSSKEGNILIEKTTDYLVSKPKASQLSNMFNKKKKRTNTNSVDVLEYFSFVCGDKVPNYESMGLEIYIQASKKYKRNSFTTKVRKSSTIFEVIGFALFLYSTEKKPDNFEEDGLTVEDISNPNNFSLKIVDEDGEPFEDNFGKLDRKSTIQSISDSEVVLCKVDDAEKSQNEIETPLPFETGGGLMDASTLDANSSHDTTDGTINQLSFYKPIIGNEDDIDKTNGSKIIDVTVYLYPNVNPKFNYTTISVLVTSHINDILVKYCKMKNMDPNEYALKVLGKNYILDLNDTVLRLDGINKVELISKKDARELHLEKMKPDLKKPVLPTIQSNDLTPLTLEPLNSYLKADAGGAVAAIPENTKVTSKAKKISTKYKLGLAKQHSSSSVASGSVSTAGGLANGNGFFKNKNSSKSSLHGTLQFHNINRSQSTMEHTPDTPNGVGDNFQDLFTGAYHKYKVWRRQQMSFINKHERTLAIDGDYIYIVPPEGRIHWHDNVKTKSLHISQVVLVKKSKRVPEHFKIFVRREGQDDIKRYYFEAVSGQECTEIVTRLQNLLSAYRMNHK

binding [1]: binds
B2: Avo3 (protein, UniProt P40061 1-1430)
chain: MSIPHSAKQSSPLSSRRRSVTNTTPLLTPRHSRDNSSTQISSAKNITSSSPSTITNESSKRNKQNLVLSTSFISTKRLENSAPSPTSPLMARRTRSTMTKALLNLKAEINNQYQELARLRKKKDDIEHLRDSTISDIYSGSYSTNHLQKHSMRIRANTQLREIDNSIKRVEKHIFDLKQQFDKKRQRSLTTSSSIKADVGSIRNDDGQNNDSEELGDHDSLTDQVTLDDEYLTTPTSGTERNSQQNLNRNSTVNSRNNENHSTLSIPDLDGSNKVNLTGDTEKDLGDLENENQIFTSTTTEAATWLVSDYMQSFQEKNVNPDFIAQKANGLVTLLKEHSEIRKDLVLTSFMSSIQNLLLNGNKLIAASAYRVCRYLINSSIFIDELLELRLDAFIIISLAKDNSFQIEREQALKMVRRFIEYNNGVTQGIMQAIISCVEKPEDSLRHMALETLLELCFVAPEMVKECRGMRVIEGFLQDYTSFSLASVILDTILQLMATHKTRQHFLEDFNVSVLTTVFSDTNTKSNVNVEKMQNASTLISITLNSYNGFMLFSNNNFKPLKQLVSFFQIPICAQYLIDIFLDVLKIKPLPYKPRGRHSHSFKPIPSQYYKECMSVNQRLALIVLILENSEFVPHLLELLNEEDRDDHLVAKGRYLLTEYFNLRMNLVDKKYTSVSKPIYKENFTYVNETFQFKKIAYKMNRNRNTIGMSGIDYAQNIKSFSKNIKENTLLREVDDFRFRRMVYDSKVLQTKDFTRWNWNIINELLEGPLLNKKQLEELVKSTKFIRRLLVFYRPLRLRFSNVNKGAKLSQKYVQVGCQFFKTLTATPEGMKILMDDTKIIPQLASLMFRAMEGNISGNIFNKNKLREKIIFGYFKFIGILTQSKNGVHILTRWNFFTVIYKMFQFESKLGLEFLLLTIPELDLKYSSHCRVIIGKALVVANEKVRIEATKHIGDKLKELLSTKESDLKLKANKVKLQQFKMEMLTRQLYDLSPSVVAVADQALYECIVAGNGSEELGTSFRMFLNQMVFIRSPILFELLSRPYGFQLLNEINFVKEERDSWLSKKNIEYVHIVEEFLKKNESINAKSLTFQQKSRLPLHFYESLTKTEDGILLLSQTGDLVTFMNVIKKYVNGNNMATVENAKEILDLKAALWCVGFIGSTELGIGLLDNYSLVEDIIEVAYNASVTSVRFTAFYVLGLISMTREGCEILDEMGWNCCVSVQDEPIGIALPNRLDRFLSYNEHKWSAFGEYSDEMIVFNKSDGDLIEKCLPIEFDLDKLLKEKDTAENPLNEKIITNKYDNDITSQTITVSGENSSLFANEGLSSPYVTQYRNDDDSIESKVLHIVSQLGNHILSNHAVKEITEINNKYGPRLFENEKMFFKVFNMMSKYRFKPHVRKFLCGLFINNRALENVIRHDNKRDKRPANFTR

binding [2]: binds
B3: Pil1 (native-source eisosome) (natural protein, S. cerevisiae (endogenous in yeast), UniProt P53252 1-339, looked up)
chain: MHRTYSLRNSRAPTASQLQNPPPPPSTTKGRFFGKGGLAYSFRRSAAGAFGPELSRKLSQLVKIEKNVLRSMELTANERRDAAKQLSIWGLENDDDVSDITDKLGVLIYEVSELDDQFIDRYDQYRLTLKSIRDIEGSVQPSRDRKDKITDKIAYLKYKDPQSPKIEVLEQELVRAEAESLVAEAQLSNITRSKLRAAFNYQFDSIIEHSEKIALIAGYGKALLELLDDSPVTPGETRPAYDGYEASKQIIIDAESALNEWTLDSAQVKPTLSFKQDYEDFEPEEGEEEEEEDGQGRWSEDEQEDGQIEEPEQEEEGAVEEHEQVGHQQSESLPQQTTA
notes: Pil1, BAR-domain eisosome protein of S. cerevisiae; model built up to residue 274 (C-terminal region from residue 275 removed, no density); Stands in the tubules as dimers in a helical lattice; also called Pil1/Lsp1; PIL1_YEAST; source: endogenous, untagged, S. cerevisiae
